These are yes or no findings as the source states them, for the method shown. Where a sequence is shown, tags or fusion partners need not be part of it.
Experiments:
[1] = biological target: RegA (response regulator RegA of Rhodobacter capsulatus), wild type, tagless (Rhodobacter capsulatus) (UniProt P42508); experiment: non-reducing SDS-PAGE; RegA dimer formed with Cu2+ and O2, isolated away from the monomer by gel filtration, then treated with DTT; both purified
[2] = biological target: RegA (response regulator RegA of Rhodobacter capsulatus), wild type, tagless (Rhodobacter capsulatus) (UniProt P42508); experiment: non-reducing SDS-PAGE; RegA in air without Cu2+, different time periods up to 4 h; both purified
[3] = biological target: RegA (response regulator RegA of Rhodobacter capsulatus), wild type, tagless (Rhodobacter capsulatus) (UniProt P42508); experiment: ESI-MS; RegA monomers with or without Cu2+ (CuSO4) in an anaerobic chamber, degassed buffers, 10 min; quenched with EDTA or passed through filters; LC (C4 reverse phase)-MS; both purified
[4] = biological target: RegA (response regulator RegA of Rhodobacter capsulatus), wild type, tagless (Rhodobacter capsulatus) (UniProt P42508); experiment: condition: only with Mg2+, Ca2+, Co2+, Ni2+, Zn2+ or Mn2+ in place of Cu2+; non-reducing SDS-PAGE; RegA treated with Mg2+, Ca2+, Co2+, Ni2+, Zn2+ or Mn2+ by the same protocol as for Cu2+; both purified

B1: RegA (response regulator RegA of Rhodobacter capsulatus), wild type, tagless (natural protein, UniProt P42508 1-184, looked up)
chain: MAEEEFAELGSDRSLLLVDDDNAFLTRLARAMEKRGFQTEIAETVSAGKAIVQNRAPAYAVIDLRLEDGNGLEVVEALRERRPEARIVVLTGYGAIATAVAAVKMGATDYLSKPADANDITNALLAKGEALPPPPENPMSADRVRWEHIQRVYELCDRNVSETARRLNMHRRTLQRILAKRSPR
notes: RegA, response regulator of the RegB/RegA two-component system, Rhodobacter capsulatus; wild-type codon at residue 95 (made from the RegA* overexpression vector of Du et al. 1998); a single cysteine, Cys156, in the tryptic peptide VYELCDR; The dimer formed with Cu2+ and O2 is joined by an intermolecular disulfide bond between Cys156 of two chains; also called apo-RegA; RegA monomer
B1 was tested. Which binding [1] did it give?
The binding was “no binding (condition: with DTT)”.

And the binding [2]?
The binding was “no binding (condition: in air without Cu2+, up to 4 h)”.

And the binding [3]?
The binding was “no binding (condition: anaerobic, with or without Cu2+)”.

What about the binding [4] of the same binder?
The binding was “no binding”.
